Data as given in US12152077B1, “Immunotherapy targeting tumor neoantigenic peptides” (INSTITUT CURIE, priority 2019, dated 2024).

Columns and labels:
[1] = system: TE-exon fusion transcripts; experiment: PCR and sequencing validation of fusion transcripts in LUAD tumor samples and tumor cell lines; design: species or system human; key: The status ‘Yes’ or ‘No’ in the table below indicates the presence or absence of the PCR product on the expected size; The status ‘Yes’ or ‘No’ in the table below indicates the presence or absence of the PCR product on the expected size
H1650 cell line = experiment: Killing assay (xCELLigence, cell-index); assay type: cell-based, human; conditions: concluded from killing without external peptide

Sequence	presence of the PCR product on the expected size ([1]; LUAD tumor cell line H1975)	other results
AILPKANTV	No; No; No; No; No; No	
AMDGKELSL	No; No; No; No; No; yes	
FLGTRVTRV	No; No; No; No; No; No	
FLIVAEILI	No; No; No; No; No; No	
MLMKTVWQA	Yes	natural expression and presentation of peptide by H1650 LUAD tumor cell line (H1650 cell line): naturally expressed and presented; presence of the PCR product on the expected size ([1]; LUAD tumor cell line A549): Yes; presence of the PCR product on the expected size ([1]; LUAD tumor cell line H1299): No; presence of the PCR product on the expected size ([1]; LUAD tumor cell line H1650): No; presence of the PCR product on the expected size ([1]; LUAD tumor cell line H2052): No; presence of the PCR product on the expected size ([1]; LUAD tumor cell line HCC827): Yes
RLADHLSFC	No; Yes; Yes; No; No; No	
RLLHLESFL	Yes; Yes; Yes; Yes; Yes; Yes	
YLPYFLKSL	Yes; No; No; Yes; No; Yes	
